Reference: patent US7385026B1, “Modified ghrelin polypeptides” (priority 1999, dated 2008)
Values joined by “and” are separate entries in the source; they are usually repeats but may differ in a detail not shown here. Identical values can stand only once. For some of these results: Part of at least one peptide drawing is inferred or uncertain, most often the ends. For some of these results: At least one structure is not confirmed: it was looked up by name or label, or the drawing left a doubt.

By UniProt entry, the sequences of proteins in these tests, tags left out.
UniProt O08725, whole entry: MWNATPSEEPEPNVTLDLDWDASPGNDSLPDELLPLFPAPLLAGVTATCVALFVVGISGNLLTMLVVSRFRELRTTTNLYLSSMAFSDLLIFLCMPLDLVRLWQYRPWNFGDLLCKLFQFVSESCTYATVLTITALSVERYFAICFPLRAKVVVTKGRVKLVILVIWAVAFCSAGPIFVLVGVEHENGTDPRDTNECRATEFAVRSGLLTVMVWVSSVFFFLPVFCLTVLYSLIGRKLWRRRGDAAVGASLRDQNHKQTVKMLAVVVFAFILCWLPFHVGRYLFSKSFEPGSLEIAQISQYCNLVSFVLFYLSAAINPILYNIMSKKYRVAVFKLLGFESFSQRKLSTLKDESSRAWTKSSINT

Key:
rat GHS-receptor (GHR-R) = biological target: T1, rat GHS-receptor (GHR-R) (Rattus norvegicus, UniProt O08725); test: Ca-releasing activity (increase in intracellular calcium) in CHO-GHSR62 cells, FLIPR; format: cell-based; details: CHO-GHSR62 cells (CHO cells expressing rat GHS receptor)
T1 construct: A full-length cDNA for rat GHR-R was obtained by RT-PCR; expressed in transfected cells
Excerpt: To assay an increase in the intracellular calcium ion concentration (Ca-releasing activity) occurring upon binding of a GH secretagogue (GHS) to GHS-receptor (GHR-R), a cell strain expressing rat GHR-R was created in the following manner. A full-length cDNA for rat GHR-R was obtained by RT-PCR (reverse transcriptase-polymerase chain reaction) where a cDNA derived from rat brain was used as template. From the nucleotide sequence of known rat GHR-R [K. K. Mckee, et al, Molecular Endocrinology 11, 415-423 (1997)], sense and antisense primers consisting of the following nucleotide sequences were synthesized.
The amplified cDNA was ligated to vector pcDNAIII (Invitrogen) to construct expression vector GHSR-pcDNAIII. CHO cells were transformed via the expression vector, and the transformed cells stably expressing GHR-R were selected in a medium containing 1 μg/ml G418. […] A change in the intracellular calcium ion concentration (Ca-releasing activity) was measured by an FLIPR system (Molecular Device). Before this measurement, 4×10^4 CHO-GHSR62 cells were put to a 96-well microplate with black wall (Corning Co., Ltd) and cultured for 12 to 15 hours. Then, the cells were incubated with 4 μM fluorescent Fluo4 (Molecular Probe Co., Ltd) for 1 hour and washed four times with Hank's BSS (Hank's Balanced Salt Solution) containing 20 mM Hepes ([N-2-hydroxyethyl]-piperazine-N-[2-ethanesulfonic acid]) and 2.5 mM probenecid, and the Ca-releasing activity was assayed by adding a sample and measuring a change in the fluorescence.
Peptide fragments obtained by partially digested the rat- and human-derived ghrelins by various proteases, or chemically synthesized peptides, were examined for their Ca releasing activity in order to determine a core amino acid sequence and the optimum chain length of a modifying fatty acid necessary for Ca-releasing activity.
The Ca-increasing activities of the ghrelin derivative peptide-type compounds synthesized in Example 10 and the natural ghrelin peptide were measured in the same manner as in Example 1.
In this examination, the intracellular Ca-releasing activity in CHO cells expressing rat GSH receptor was used as the indicator.

[1] = system: amino-terminal antibody (anti-[C-Cys]-rat ghrelin [1-11] antigen); test: Radioimmunoassay: inhibition of binding of labeled rat ghrelin to amino-terminal antibody; design: species or system rabbit
IGS-SD strain rats = test: GH-releasing activity of long-chain ghrelin derivatives in rat (plasma GH 15 min after i.v.); format: in vivo; details: dose 6 nmol/kg i.v.
Description: Fifteen minutes after administration, plasma was collected, and the concentration of GH in plasma was measured by radioimmunoassay (Biotrak/Amersham). Separately, 0.2% bovine serum albumin (BSA)-physiological saline, 6 nmol/kg rGhrelin and hGhrelin, or 80 nmol/kg Ipamorelin (Compound 80) was administered into other rats as the control, respectively, and the concentrations of GH in plasma in 15 minutes after administration were compared (for each sample, n=3).

SMILES | EC50 (rat GHS-receptor (GHR-R)) | cross-reactivity with the amino-terminal antibody [1] | GH level in plasma in 15 min. after administration, M ± S.D. (IGS-SD strain rats; n=3) | GH level in plasma in 15 min. after administration, individual rats (Rat 1-3) (IGS-SD strain rats; rats under Nembutal, listed as hGhrelin)
CC[C@H](C)[C@H](NC(=O)[C@H](CO)NC(=O)CN)C(=O)N[C@@H](Cc1ccccc1)C(=O)N[C@@H](CC(C)C)C(=O)N[C@@H](CO)C(=O)N1CCC[C@H]1C(=O)N[C@@H](CCC(=O)O)C(=O)N[C@@H](Cc1c[nH]cn1)C(=O)N[C@@H](CCC(N)=O)C(=O)N[C@@H](CCCNC(=N)N)C(=O)N[C@H](C(=O)N[C@@H](CCC(N)=O)C(=O)N[C@@H](CCC(N)=O)C(=O)N[C@@H](CCCNC(=N)N)C(=O)N[C@@H](CCCCN)C(=O)N[C@@H](CCC(=O)O)C(=O)N[C@@H](CO)C(=O)N[C@@H](CCCCN)C(=O)N[C@@H](CCCCN)C(=O)N1CCC[C@H]1C(=O)N1CCC[C@H]1C(=O)N[C@@H](C)C(=O)N[C@@H](CCCCN)C(=O)N[C@@H](CC(C)C)C(=O)N[C@@H](CCC(N)=O)C(=O)N1CCC[C@H]1C(=O)N[C@@H](CCCNC(=N)N)C(=O)O)C(C)C [Compound 71, [Ile^3]-hGhrelin] | > 10000 nM | – | – | –
CCCCC=CCC(=O)OC[C@H](NC(=O)[C@H](CO)NC(=O)CN)C(=O)N[C@@H](Cc1ccccc1)C(=O)N[C@@H](CC(C)C)C(=O)N[C@@H](CO)C(=O)N1CCC[C@H]1C(=O)N[C@@H](CCC(=O)O)C(=O)N[C@@H](Cc1c[nH]cn1)C(=O)N[C@@H](CCC(N)=O)C(=O)N[C@@H](CCCNC(=N)N)C(=O)N[C@H](C(=O)N[C@@H](CCC(N)=O)C(=O)N[C@@H](CCC(N)=O)C(=O)N[C@@H](CCCNC(=N)N)C(=O)N[C@@H](CCCCN)C(=O)N[C@@H](CCC(=O)O)C(=O)N[C@@H](CO)C(=O)N[C@@H](CCCCN)C(=O)N[C@@H](CCCCN)C(=O)N1CCC[C@H]1C(=O)N1CCC[C@H]1C(=O)N[C@@H](C)C(=O)N[C@@H](CCCCN)C(=O)N[C@@H](CC(C)C)C(=O)N[C@@H](CCC(N)=O)C(=O)N1CCC[C@H]1C(=O)N[C@@H](CCCNC(=N)N)C(=O)O)C(C)C [Compound 16, [Ser^3(3-Octenoyl)]-hGhrelin] | 1.7 nM | – | – | –
CCCCCCCCCCC(NC(=O)[C@H](CO)NC(=O)CN)C(=O)N[C@@H](Cc1ccccc1)C(=O)N[C@@H](CC(C)C)C(=O)N[C@@H](CO)C(=O)N1CCC[C@H]1C(=O)N[C@@H](CCC(=O)O)C(=O)N[C@@H](Cc1c[nH]cn1)C(=O)N[C@@H](CCC(N)=O)C(=O)N[C@@H](CCCNC(=N)N)C(=O)N[C@H](C(=O)N[C@@H](CCC(N)=O)C(=O)N[C@@H](CCC(N)=O)C(=O)N[C@@H](CCCNC(=N)N)C(=O)N[C@@H](CCCCN)C(=O)N[C@@H](CCC(=O)O)C(=O)N[C@@H](CO)C(=O)N[C@@H](CCCCN)C(=O)N[C@@H](CCCCN)C(=O)N1CCC[C@H]1C(=O)N1CCC[C@H]1C(=O)N[C@@H](C)C(=O)N[C@@H](CCCCN)C(=O)N[C@@H](CC(C)C)C(=O)N[C@@H](CCC(N)=O)C(=O)N1CCC[C@H]1C(=O)N[C@@H](CCCNC(=N)N)C(=O)O)C(C)C (stereo partly shown) [Compound 58, [Adod^3]-hGhrelin] | ≤ 1 nM and 0.91 nM | – | – | –
CC(C)C[C@H](NC(=O)[C@H](CCCCN)NC(=O)[C@H](C)NC(=O)[C@@H]1CCCN1C(=O)[C@@H]1CCCN1C(=O)[C@H](CCCCN)NC(=O)[C@H](CCCCN)NC(=O)[C@H](CO)NC(=O)[C@H](CCC(=O)O)NC(=O)[C@H](CCCCN)NC(=O)[C@H](CCCNC(=N)N)NC(=O)[C@H](CCC(N)=O)NC(=O)[C@H](CCC(N)=O)NC(=O)[C@@H](NC(=O)[C@H](CCCNC(=N)N)NC(=O)[C@H](CCC(N)=O)NC(=O)[C@H](Cc1c[nH]cn1)NC(=O)[C@H](CCC(=O)O)NC(=O)[C@@H]1CCCN1C(=O)[C@H](CO)NC(=O)[C@H](CC(C)C)NC(=O)[C@H](Cc1ccccc1)NC(=O)[C@@H](Cc1ccc2ccccc2c1)NC(=O)[C@H](CO)NC(=O)CN)C(C)C)C(=O)N[C@@H](CCC(N)=O)C(=O)N1CCC[C@H]1C(=O)N[C@@H](CCCNC(=N)N)C(=O)O [Compound 66, [2-^DNal^3]-hGhrelin] | > 10000 nM | – | – | –
CCCCCCCC(=O)OC[C@H](NC(=O)[C@H](CO)NC(=O)CN)C(=O)N[C@@H](Cc1ccccc1)C(=O)N[C@@H](CC(C)C)C(=O)N[C@@H](CO)C(=O)N1CCC[C@H]1C(=O)N[C@@H](CCC(=O)O)C(=O)N[C@@H](Cc1c[nH]cn1)C(=O)N[C@@H](CCC(N)=O)C(=O)N[C@@H](CCCNC(=N)N)C(=O)N[C@H](C(=O)N[C@@H](CCC(N)=O)C(=O)N[C@@H](CCC(N)=O)C(=O)N[C@@H](CCCNC(=N)N)C(=O)N[C@@H](CCCCN)C(=O)N[C@@H](CCC(=O)O)C(=O)N[C@@H](CO)C(=O)N[C@@H](CCCCN)C(=O)N[C@@H](CCCCN)C(=O)N1CCC[C@H]1C(=O)N1CCC[C@H]1C(=O)N[C@@H](C)C(=O)N[C@@H](CCCCN)C(=O)N[C@@H](CC(C)C)C(=O)N[C@@H](CCC(N)=O)C(=O)N1CCC[C@H]1C(=O)N[C@@H](CCCNC(=N)N)C(=O)O)C(C)C [Compound 1, human Ghrelin] | – | 100% | 1873 ± 301 ng/mL | 1802 ng/mL and 1613 ng/mL and 2203 ng/mL
